From PubChem BioAssay AID1508600 (Functional Genomics Laboratory (NCATS/FGL), 2020)
About 3,700 (7%) of roughly 53,000 sequences were called active.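 The calls were made as follows: active = gene knockdowns whose robust z-score for IL-1 alpha signal is at least 2 or at most -2, so actives lie on both sides; inactive = the rest.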 This is one part of the list.

Test: Components of the Cytosolic LPS Sensing Pathway: Gene Identification via Genome-wide siRNA Screen;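 also: robust z of the log signal after scaling to non-targeting control siRNA wells of the plate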
Settings: RAW264.7 macrophages, IL-1a HTRF, actives lie on both sides, screened at 100 nM (by protocol), cells primed 5 h with Pam3CSK4 first
Method in brief: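 IL-1a HTRF of supernatants after 24 hour LipidA transfection of Pam3CSK4-primed (5 hours) RAW264.7 cells, 48h post-siRNA transfection (100 nM). Scores: percent of plate negative-control median, then log-based robust z-score.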

z-score, inactive:
CCCAUCUAUUAGAAUUGAGTT against Slc4a8 0.68
GGAAAAGUAUCCAUGUCACTT against Impa1 -1.75
GGAUGAGAUAUUCAGCCAGTT against Rsph6a -1.33
GCAAGAACCUGGCCCAGAATT against Izumo1r -0.0769
GGGAUGAAUAUUUGUGUCATT against Spred3 -1.83
GCCUGUUAGCUAUAUUAAGTT against Ahr 1.11
GGAAGAUCUCUUGUCUGCUTT against Mtcp1 -0.269
GCGUAUAUGUUAUGCUUCATT against Zpbp 1.15
GGCAUCACAGUGUACGAUUTT against Glis3 -0.331
GGAACUGGAAAACUUCAAATT against Mrvi1 1.04
GGUUAUUACCCACUCAAAATT against Mkks 0.707
CCCUUCACACGAGUAUGAATT against Rsph9 0.652
GGUCGGCAAUAUCCUAUUUTT against Ttc13 -0.584
GGACAUCAACGACAGUGAATT against Cdh22 -0.206
GGUCUUUGUAUGUCUGUUUTT against Rad51d 1.06
GCAGAUACGUAGAAGGAUCTT against Olfr555 0.116
GGGCUUUUACUCCUACCUGTT against Slc43a2 -0.794
GGCCGGAAGGAUAUUACCUTT against Epha3 -0.81
GCAUUACACUGUUAAUGUUTT against Gopc -0.138
GGUGAAGCCACAAUGUUCCTT against Helt 0.246
CCUAAAACUCACCAUAGAGTT against Nfatc3 -1.13
GGAGGAAACACAUCAUUUGTT against Tmem131 1.15
GGUAGCUAGAGAACUCUAUTT against Otud7b 1.12
GGACAUAUUGGAAACAGAATT against Plgrkt 0.00205
GCGACUUCGCUAUAUCAAGTT against Samhd1 1.65
GCAGAGGGACAGUCUACAUTT against Rorc -0.534
GGGUGCAUGCCUUAAACAATT against Utrn 0.812
UCCAGAAAGAGAAAGCCAUTT against Ifna16 0.429
CCUUAAUCAUUAGGAUUGCTT against Zfp655 -0.529
CGAUAUUUAUCAUGAGUGCTT against Nlrp9c -1.9
GCCACACAUAGGAACCAGUTT against Abhd16a -0.704
CCAAAUCCCAGAGUUAUUUTT against Htr2c 0.361
CCGUAGCGAGACUUACAUCTT against Asic3 1.88
GCCUGACUCUAGCUGUCAATT against Mzb1 -1.02
CGAUCGUGUGGGUUAUAUCTT against Htr1f 1.17
GCAGUACUAAACCAGAUAUTT against Ncbp3 1.9
GCUAAAGCAGCUCGUCUGGTT against Psmd11 -0.368
GGCAACUGUUGUAAAUCAATT against Veph1 -1.01
GUCCAUACUUUGGUUUUCCTT against Plekhh1 -0.195
GGUUCAUCCAACUUUCAAGTT against Stac3 0.587
GGCUUGGCUAUGAAAAGUATT against Rusc2 -0.794
GCCUAUGAGGAACUACCUATT against Pga5 1.23
CGAACUUGUACAGAAGAAUTT against Slfn3 -0.311
CCGGCUUAUGCUCAACUUCTT against Bpifb1 0.29
GGCUCGUUUGUACGACUUCTT against Pigm 1.2
GGAGUCUGCUGGUUUAGUGTT against Fmc1 0.0551
GGGUUUCUAUGAAGAGAUCTT against Fhod1 -0.624
GCUCCGGAAAUUGGCAUCATT against Ppp1r10 -1.5
CGUGGUUAAGGACUUGUUUTT against Nek7 0.0862
CCAGCUCUCGAUUCCAUCATT against Fem1a 0.615
GGAGAACAAGUGUCUGCUUTT against Tspan9 -0.196
CGAGUUGCAGGAUUUCAAGTT against Slit3 0.512
GCGAAUUACUAUGUACCUATT against Sqor 1.75
GCUUACAUGAACAUAUAGUTT against Tiparp -0.402
GGAAUUUGUGAAAAGAAGUTT against Aldh1a2 -0.923
GCAAAUGUAUUAUGUCCUUTT against Gm5478 0.0907
CCACCACAACUAAGUCAGATT against Ccdc90b -1.34
GGAUGACGUACGCUUCAAGTT against Cercam 0.563
CCUAUGGGUGUCUAUACCUTT against Clrn3 0.0264
GGAGACACAACCAACAUUATT against Cnr1 0.564
GGAUUCAUUUCAUACCUUGTT against Rab31 -0.335
CGGGCAUGAUGAAUCGAUGTT against Ldhd 1.83
GGAAUCUUUGUCCGUGAGCTT against Prx -0.516
GGCUUGAACACAAGAAAGCTT against Golim4 -0.778
GCCGCUACUCUCCUCAAAATT against Card19 -0.329
GCCAAAGAGCAUAUCGAUUTT against Spopl 0.889
GGCUAAGAAGGAGAUUAAATT against Gas2 0.0847
GGAAAGAUGAGUUUCUGUUTT against Arf3 1.48
CGAAGCUCUAAUUUCAUGUTT against Pik3c3 0.456
CCAUUCCAAAGCACUCUUATT against Cerkl 0.822
ACUACUCAGACAUCUCUUGTT against Capn11 0.143
GGAAUUCAUUAGAAACCAGTT against Psmc1 -1.83
GGCCUUUAUCCUGAGGCUATT against Ctu2 -1.75
GGACUGGAGUGGUUUGUCUTT against Atp9b -1.11
GGAGAAAAACAUCAUUGAATT against Reck -0.102
GCGUGAAUGAGGGAUCAGATT against Nphs1 -0.0184
GGUUAAAUGCCCGCCAACATT against Eif2ak4 -0.876
CGGCUGAAGACUGAAAACGTT against Hnrnpl 0.221
GGUUUAAGAUUGAGUAUUCTT against Eid1 0.602
GGUUCAGCAUUUUAAAGUGTT against Ago3 1.05
CCUUAUGAGUCUUACGACUTT against Zfp326 1.15
CCAUCUGUCUUCUAUUUCATT against Echdc1 -0.702
GGAAGUCACUCCUCUUGUUTT against Ralgapa1 -0.49
GGCCUUACUAAAGAACCGCTT against Ipo4 0.931
GCACAGAUCUUUUUGUUCUTT against Olfr297 -1.11
GCAAAGGACCUAAUUUAUUTT against Ehd4 1.13
CGACAUGAUUACUAUUCUCTT against Eif4ebp1 -0.39
GAAGAAGCCUACAGUGACCTT against Zfp644 0.945
CCCAGAAGGACGGCACUAGTT against H2-DMb2 0.265
GGCUGUUUGCCUGUAUUCUTT against Olfr259 -1.34
GGUACCAGAACACAAGACCTT against Vkorc1 -0.548
GCAUUUUGUGAGCGUACAATT against Itgal 1.18
GGAAGCAGAGAGUUAGAAGTT against Ndel1 0.297
CCCUGUUCCAAUCCGGUUCTT against Selenov -0.999
GCAACAGACAUUGCCAUCATT against Olfr243 -1.32
GGAAAGCUACAUGUUGCUUTT against Prkacb -0.237
GGUCCAGUUCCUUGACAUCTT against Ifit1 -1.1
GCAAACAAAACAAGUGAGCTT against Cyb5r2 -0.371
GGAACUGACUCUUGAAAAUTT against Cd14 0.367
CCUAGACAUCAGUAAUGCGTT against Zbtb17 -0.43
GGAAACUCUUCACCACAAATT against Cypt1 0.038
CCAAGAGGAAAGCAUAGAUTT against Flii 1.79

Not a retest: an excerpt of the list.
z-score, inactive:
GGGAUGAAUAUUUGUGUCATT against Spred3 -1.83
GCCUGUUAGCUAUAUUAAGTT against Ahr 1.11
GGAAGAUCUCUUGUCUGCUTT against Mtcp1 -0.269
GCGUAUAUGUUAUGCUUCATT against Zpbp 1.15
GGCAUCACAGUGUACGAUUTT against Glis3 -0.331
GGAACUGGAAAACUUCAAATT against Mrvi1 1.04

Two records drawn at random from those above, as already listed:
z-score, inactive:
GGACAUCAACGACAGUGAATT against Cdh22 -0.206
GCGAAUUACUAUGUACCUATT against Sqor 1.75

Following part:

z-score, active:
GGAGAGCUGCAUGAUUUCATT against Efcab2 3.67
CGUCCAUAGAACAAUUGCATT against Rnase12 2.82
CCAUGUGUCAAACUACCGGTT against Rbmx2 7.02
GGUCCUGAAGAUACAUAUUTT against Taf2 -2.42
GCUGCACAUUGUCCAUUAUTT against Car12 2.3
CGGCAUCAUUCAUUCAUUATT against Pacrgl 2.01
